This experiment can be described thus: qHTS Assay for Lipid Storage Modulators in Drosophila S3 Cells.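 On cell number change: cells counted by Cell Tracker Red CMTPX staining in the red channel.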 The conditions noted are these: BODIPY lipid droplet fluorescence, 18-24 h; for cell number change: measured here: cell count max response, cells fed with added oleic acid. In a few lines: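 Laser-scanning cytometry quantifies lipid droplet accumulation (500–530 nm total intensity; droplet/cell object ratio) in oleic acid-fed (400 uM added) Drosophila S3 cells treated with a concentration series. 20 uM Triacsin C defined 100% inhibition.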
A general note: In qHTS, concentration-response curves come from the screen itself.

Setting [1] is: measured here: lipid fluorescence (Fed channel) AC50, cells fed with added oleic acid.
Where [2] appears, read: measured here: cell number channel AC50, cells fed with added oleic acid.

Some of the results follow. Shown are side measurements of this screen, not its main read-out; they come without a call. The list favours compounds with an active or inconclusive main result. Potencies come from curve fits of mixed quality, noted in brackets. Where a SMILES comes first, the peptide text is derived from it. The star is where a group is joined. OBn = c1ccc(CO*)cc1

On to `Cc1onc(-c2ccccc2)c1C(=O)NCc1ccc2c(c1)OCO2`, for which the cell number change is -25.8%. Also, the AC50 under setting [1] is 9.2 µM [falling, partial curve].

As to `Cc1ccc(C(C)(C)C)cc1S(=O)(=O)NC(=O)c1ccccc1`, the AC50 was 0.058 µM [falling, full curve, poor fit] under setting [2] and 0.291 µM [falling, full curve] under setting [1].

Regarding `COCCN1C(=O)c2oc3c(C)cc(C)cc3c(=O)c2C1c1cccc(O)c1` (stereo not drawn), the AC50 under setting [2] is 1.03 µM [rising, partial curve] and the AC50 under setting [1] was 2.06 µM [rising, partial curve].

Take `CCc1nnc2n1N=C(c1ccc(-c3cc(Cl)ccc3Cl)o1)CS2`: under setting [1], the AC50 is 0.651 µM [falling, single point].

Consider `Cc1cccc(C(=O)OC(C)C(=O)NCC2CCCCC2)c1O` (stereo not drawn), for which the cell number change turned out to be 0.0318%.

In the case of `CC(C)(C)C(=O)OCc1nc(-c2ccc3c(c2)OCCO3)cs1`, the cell number change is -21.5%. The AC50 under setting [1] is 32.6 µM [falling, single point].

With `OC(Cn1cnnc1)c1ccccc1` (stereo not drawn), the cell number change is -12.1%. The AC50 under setting [1] was 6.51 µM [rising, single point].

In the case of `CCC(C)C(NC(=O)C(N)CC(C)C)C(=O)NC(CCC(=O)OCc1ccccc1)C(N)=O` (stereo not drawn) (H-Leu-Ile-Glu(OBn)-NH2; configuration not given here), the cell number change was -14.3%. Besides, the AC50 under setting [2] is 0.00517 µM [falling, full curve, poor fit]. Also, the AC50 under setting [1] was 6.51 µM [falling, single point].

On to `CCOc1ccccc1C(=O)NCC(=O)OCc1c(C)noc1C`, for which the cell number change came to 19.8%. Besides, the half-maximal activity concentration (AC50) under setting [1] was 7.31 µM [rising, partial curve].

Take `Cc1cccc(C(=O)N2CCN=C2SCc2ccc([N+](=O)[O-])cc2)c1`: the cell number change worked out at 63.4%.

In the case of `O=C(NCc1ccc(N2CCCC2=O)cc1)c1cn(Cc2ccccc2)nn1`, the cell number change worked out at 7.98%.

In the case of `OCC1(Cc2ccc(Cl)cc2)CCN(Cc2ccc(Oc3ncccn3)cc2)CC1`, the cell number change turned out to be 25.7%. Under setting [2], the AC50 is 0.517 µM [rising, full curve].

With `CCN(CC)C(=S)Nc1ccc(OC)cc1`, the cell number change is -12%.

With `C#CCOCCOCCOCCNc1nc(N2CCN(C(=O)Cn3cc(CCCCN)nn3)CC2)nc(N2CCN(C(=O)[C@H]([C@@H](C)CC)n3cc(CCCN=C(N)N)nn3)CC2)n1`, the cell number change is -25%. Further, the AC50 under setting [1] is 0.82 µM [rising, full curve].

`COC(=O)c1ccccc1Sc1ncnc2onc(C)c12`: the AC50 by setting is: under setting [2], 0.164 µM [rising, full curve]; under setting [1], 0.164 µM [rising, full curve, poor fit].

Regarding `CCN(CC)S(=O)(=O)c1ccc(NC(=S)NC(=O)C2CCC2)cc1`, the cell number change is -14.4%. Moreover, under setting [1], the concentration at half-maximal activity (AC50) was 29.1 µM [rising, single point].

Turning to `O=[N+]([O-])c1ccc(-n2nnnc2CN2CCCCC2)cc1`, the cell number change is 7.67%. The AC50 under setting [2] was 0.82 µM [rising, single point].

For the compound `O=C(NCCc1ccccc1)c1cc(=O)[nH]c2ccccc12`, the AC50 under setting [1] was 2.59 µM [rising, single point].

For the compound `CC(C)CN1C(=O)C(=O)N(CC(=O)N2CCC(Cc3ccccc3)CC2)C1=O`, under setting [2], the AC50 was 0.461 µM [falling, single point].

Take `CC(=O)NCc1ccc(S(=O)(=O)N/N=C/c2ccccc2)cc1`: the cell number change was -18.6%. In addition, the concentration at half-maximal activity (AC50) under setting [1] was 3.26 µM [falling, partial curve].

As for `COc1ccc(C(C)=O)cc1CSc1nnc2c(Cl)cc(Cl)cn12`, the cell number change was determined as 3.76%. In addition, the AC50 under setting [1] was 0.0461 µM [rising, full curve, poor fit].

Regarding `CC(C)(C)C(=O)Nc1ccnn1C1CCN(C(=O)c2ccc(Cl)cc2F)CC1`, the cell number change is 1.65%. For the same compound, the half-maximal activity concentration (AC50) under setting [1] is 18.4 µM [falling, single point].

Regarding `C=CCNC(=S)NNc1nc(Nc2ccccc2)nc(N2CCCCC2)n1`, the cell number change is -12.1%. For the same compound, under setting [1], the AC50 was 0.13 µM [falling, full curve, poor fit].

Take `CC(=O)c1cccc(NC(=O)CC2S/C(=N/N=C3CCCCCC3)NC2=O)c1` (stereo not drawn): under setting [1], the AC50 is 29.1 µM [falling, single point].

As for `Cc1[nH]n(-c2ccccc2)c(=O)c1/C=C1\C=NN=C1c1ccccc1`, the cell number change was -33.3%. Also, the AC50 under setting [2] is 14.6 µM [falling, single point]. Moreover, the AC50 under setting [1] is 29.1 µM [falling, single point].

As for `CC1CCCC(NC(=O)NC(=O)CCl)C1C` (stereo not drawn), the cell number change is -49%. Under setting [2], the half-maximal activity concentration (AC50) was 16.4 µM [falling, single point]. The AC50 under setting [1] is 29.1 µM [falling, single point].

For the compound `CC(C(=O)Nc1ccc2c(c1)OCO2)N(c1ccc(Cl)cc1)S(C)(=O)=O` (stereo not drawn), the cell number change was -6.61%.

For the compound `Cc1ccc(NC(=O)c2cnc(SCC(=O)NCC3CCCO3)n(C)c2=O)cc1` (stereo not drawn), the cell number change is -35.6%. The concentration at half-maximal activity (AC50) under setting [2] was 25.9 µM [falling, single point].

With `CCOC(=O)N1CCN(S(=O)(=O)c2ccc(C(=O)Nc3sc4c(c3C(N)=O)CCN(CC)C4)cc2)CC1`, the cell number change came to 15.3%. Besides, under setting [1], the AC50 was 18.4 µM [rising, single point].

Consider `CN=C1S/C(=C\c2ccc(OCC(=O)OC)c(OC)c2)C(=O)N1C`, for which the cell number change is -7.62%.

Take `Cc1cc(C(=O)NC(C)Cc2ccccc2)cc(C)c1[N+](=O)[O-]` (stereo not drawn): the cell number change came out at 42.1%. Besides, under setting [2], the AC50 is 4.61 µM [rising, partial curve, poor fit]. In addition, the AC50 under setting [1] was 1.16 µM [rising, full curve, poor fit].

With `O=C(CN1CCCCC1)Nc1c2c(nc3ccccc13)N(c1ccccc1)CC2`, the cell number change was -33%.

Consider `Cn1c(CSCc2ccccc2)nnc1SCC(=O)Nc1nccs1`, for which the cell number change is -16.9%. Further, the AC50 under setting [1] was 20.6 µM [falling, single point].

For `COc1c(C)cc(C(=O)C2CCCN(C(=O)C3=C(C)OCCO3)C2)cc1C` (stereo not drawn), the cell number change is -42.1%. The AC50 under setting [2] is 23.1 µM [falling, single point]. Further, the AC50 under setting [1] was 14.6 µM [falling, partial curve].

Take `CCn1c(C)cc2c(c1=O)C(c1ccncc1)C(C#N)=C(N)O2` (stereo not drawn): the cell number change amounted to 7.45%. For the same compound, the half-maximal activity concentration (AC50) under setting [1] is 0.82 µM [falling, full curve].

Take `COc1ccc(S(=O)(=O)NCCC(=O)NCc2ccc(F)cc2)cc1`: the cell number change was 117%. The half-maximal activity concentration (AC50) under setting [2] was 5.17 µM [falling, partial curve]. Further, under setting [1], the AC50 is 3.26 µM [falling, single point].

Regarding `CCOC(=O)NC(=O)CSc1nnnn1-c1ccccc1`, the cell number change amounted to 2.29%.

Take `O=C(COC(=O)/C=C/c1ccccc1Cl)NCCc1ccc(Cl)cc1Cl`: under setting [1], the AC50 was 18.4 µM [falling, single point].

Regarding `CCc1ccccc1Nc1nc(N)nc(COC(=O)c2c(C)noc2C)n1`, the cell number change was found to be 31.7%. Besides, under setting [2], the AC50 is 0.326 µM [rising, full curve, poor fit]. In addition, under setting [1], the AC50 was 0.00517 µM [falling, full curve, poor fit].

As for `COCc1cc(CN2CCCC2)c(O)c2ncccc12`, the cell number change was -62.1%. In addition, the AC50 under setting [2] was 20.6 µM [falling, single point]. Moreover, the AC50 under setting [1] was 29.1 µM [falling, single point].

Consider `O=C(NCc1cccc(CNC(=O)c2ccco2)c1)c1ccco1`, for which the cell number change is 3.13%. Also, the AC50 under setting [1] is 0.58 µM [rising, single point].

Turning to `COc1ccc(CN2C(=O)C(Cc3ccccc3)Nc3ncnc(N4CCOCC4)c32)cc1` (stereo not drawn), the cell number change amounted to 16.1%. The AC50 under setting [1] was 23.1 µM [rising, single point].

As to `Cc1cccc(Cn2c(O)c(N=NC(=S)Nc3ccccc3F)c3ccccc32)c1`, the cell number change was -44.5%. Moreover, the AC50 under setting [2] is 18.4 µM [falling, single point]. Moreover, the AC50 under setting [1] was 14.6 µM [falling, partial curve].

Regarding `O=C(COC(=O)/C=C/c1ccccc1[N+](=O)[O-])Nc1ccc(OC(F)F)cc1`, the cell number change is 13.8%.

Turning to `CC(=O)N/C(=C\c1ccccc1)C(=O)Nc1ccccc1C`, the cell number change stood at 1.74%. The AC50 under setting [1] is 6.51 µM [falling, single point].

On to `CCN1CCN(c2ccc(Cl)cc2NC(=O)c2ccco2)CC1`, for which the cell number change is -20.1%. Also, the AC50 under setting [2] was 0.0058 µM [falling, full curve, poor fit]. Moreover, the AC50 under setting [1] was 6.51 µM [falling, single point].

For the compound `Cc1ccccc1N1C(=O)CC1(C#N)c1ccc(OCc2ccccc2)cc1` (stereo not drawn), the cell number change is -41.5%. For the same compound, the AC50 under setting [2] was 29.1 µM [falling, single point]. Moreover, the AC50 under setting [1] was 0.461 µM [rising, partial curve, poor fit].

Take `O=[N+]([O-])c1ccc(S(=O)(=O)NCC(c2cccnc2)N2CCc3ccccc3C2)cc1` (stereo not drawn): the cell number change came out at 58.9%. Further, under setting [2], the AC50 is 29.1 µM [rising, single point].

As to `OCCC1CN(Cc2cccn2-c2nccs2)CCN1Cc1ccccc1` (stereo not drawn), the cell number change amounted to 17.2%.

As for `N#CC/C(N)=N/Nc1nc2ccccc2nc1Cc1ccccc1`, the cell number change was -9.04%. Moreover, the AC50 under setting [1] is 16.4 µM [falling, single point].

On to `CC(=O)C1=C(O)C(=O)N(c2ccc(C)cc2)C1c1ccc([N+](=O)[O-])cc1` (stereo not drawn), for which the cell number change is 37.3%. Under setting [2], the AC50 was 0.651 µM [falling, partial curve]. Also, under setting [1], the AC50 is 1.16 µM [falling, full curve].

Consider `COc1ccc(NC2=CC(=O)N(C)C2=O)cc1`, for which the cell number change was 36.6%. For the same compound, the AC50 under setting [2] was 29.1 µM [rising, single point]. Besides, under setting [1], the AC50 was 29.1 µM [rising, single point].

For the compound `CN(C)S(=O)(=O)c1cccc(NC(=O)COC(=O)/C=C/c2cccs2)c1`, the AC50 under setting [1] is 6.51 µM [falling, single point].

On to `O=C(Nc1cccc(Cl)c1)N1CCOCC1`, for which the cell number change is 15.9%. Moreover, under setting [1], the concentration at half-maximal activity (AC50) is 18.4 µM [falling, partial curve, poor fit].

As to `C=C(C)CSc1nc(N)c2c(C)c(C)sc2n1`, the AC50 under setting [2] is 1.03 µM [rising, partial curve] and the AC50 under setting [1] is 0.058 µM [rising, full curve].

Consider `Nc1nc(SCC(=O)N2CCOCC2)n[nH]1`, for which the cell number change is -13.1%. For the same compound, the AC50 under setting [1] is 18.4 µM [falling, single point].

Regarding `O=C1NC(=O)C2C3c4ccccc4C(c4ccccc43)C12` (stereo not drawn), the cell number change was determined as 1.38%. In addition, under setting [1], the AC50 is 6.51 µM [falling, single point].

Turning to `CCOC(=O)Nc1ccc(=O)n(Cc2c(Cl)cccc2Cl)c1`, the cell number change stood at 24.4%. The AC50 under setting [1] was 25.9 µM [rising, single point].

As usually defined, the AC50 is the concentration at which the activity in the assay is half-maximal. Read a low AC50 as greater potency.

(Values after PubChem BioAssay AID2685 (National Center for Advancing Translational Sciences (NCATS), 2010).)
